# Several values for one entry are separate records, joined by “and”; a condition that tells them apart may be missing. Equal values may be shown once. The list shows a part of the results. The main result of the screen is listed elsewhere. These columns were measured beside it and carry no call. Most of these compounds were active or inconclusive in the main read-out, so they are no random draw. Potencies come from curve fits of mixed quality, noted in brackets.
# Test: Cell signaling CRE-BLA (Fsk stim)
# Settings: CHO CRE-bla reporter (cAMP response element driving beta-lactamase), forskolin EC10, beta-lactamase ratio; measured here: 460 nm blue channel
# How it was run: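 CHO CRE-bla cells, overnight plating in Opti-MEM with 0.5% dialyzed FBS; cpd titration + EC10 NKH 477, 3 h 37 °C; CCF4 2 h RT; ex 405/em 460 vs 530 ratio → %Activity, AC50.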
row,SMILES,AC50
1,O=S(=O)(NCc1ccc2c(c1)OCO2)c1cccc2nsnc12,"2.51 µM [falling, single point]"
2,Cc1ccc(CCNC(=O)c2nnn(-c3cccc(C)c3)c2N)cc1,"25.1 µM [falling, single point]"
3,COc1ccc2[nH]cc(CCNc3cc(-c4c(C)noc4C)ncn3)c2c1,"12.6 µM [rising, partial curve]"
4,CCn1c(CNC(=O)Cc2ccc(OC)cc2)nnc1SCC(=O)Nc1nccs1,"10 µM [falling, single point]"
5,CN1c2ccccc2C(C)(C)C12C=Cc1cc(O)ccc1O2 (centres undefined),"25.1 µM [falling, single point]"
6,CC[N+](CC)(CC)CC(=O)Nc1c(C)cccc1C,"31.6 µM [falling, single point]"
7,CSc1nnc(Cn2c(=O)sc3ccccc32)n1CCc1ccccc1,"10 µM [rising, single point]"
8,COCCn1c(C)cc(C(=O)CSc2ncn[nH]2)c1C,"12.6 µM [falling, partial curve]"
9,COc1ccc(OC)c2[nH]c(=O)c(CCNC(=O)COc3ccccc3)cc12,"12.6 µM [rising, single point]"
10,COc1cc(-c2ccc(=O)[nH]n2)ccc1OC(F)F,"3.98 µM [rising, partial curve] and 2 µM [rising, full curve]"
11,COCc1nnc(NS(=O)(=O)c2ccc(C)cc2)s1,"3.98 µM [falling, full curve]"
12,Cc1cc(=O)oc2cc(OCc3nnc(-c4ccccc4Br)o3)ccc12,"12.6 µM [rising, single point]"
13,CCCCN1c2ccccc2N(CCCO)c2cc(C)nnc21,"2 µM [rising, full curve]"
14,COC(=O)[C@@]1(Cc2ccc(OC)cc2)[C@H]2c3cc(C(=O)N(C)C)n(CCc4ccc(OC)c(Br)c4)c3C[C@H]2CN1C(=O)c1ccccc1,"5.01 µM [rising, partial curve]"
15,CCC(C(=O)OC)n1cnc2c(cnn2-c2ccc(Cl)cc2)c1=O (centres undefined),"0.0501 µM [rising, full curve]"
16,COc1cccc(-c2nc(NC3CCNCC3)c3ccccc3n2)c1,"5.01 µM [rising, partial curve]"
17,Nc1nc(-c2cccnc2)nc(N2CCCCC2)n1,"25.1 µM [rising, single point]"
18,Cc1cc(S(=O)(=O)N2CCN(Cc3ccc4c(c3)OCO4)CC2)cc(C)c1N1CCCC1=O,"31.6 µM [falling, single point]"
19,CNC(=O)[C@H]1O[C@H](n2cnc3c(NCc4cccc(I)c4)nc(Cl)nc32)[C@@H](O)[C@@H]1O,"7.94 µM [rising, partial curve]"

# 2 entries drawn at random from the list so far:
row,SMILES,AC50
17,Nc1nc(-c2cccnc2)nc(N2CCCCC2)n1,"25.1 µM [rising, single point]"
2,Cc1ccc(CCNC(=O)c2nnn(-c3cccc(C)c3)c2N)cc1,"25.1 µM [falling, single point]"
